Source: patent publication US20100069481A1, “METHODS AND COMPOSITIONS FOR THE TREATMENT OF CANCER” (Bionovo, Inc., priority 2008, published 2010)
For at least one compound, name, drawing or mass did not settle the structure.

Test system: breast cancer cells (MDA MB 231, SKBr3)
Experiment: induction of cell death, propidium iodide test, FACS
Assay type: cell-based, human
Settings: Table 11

Structure (SMILES): O=c1cc(-c2ccc(O)cc2)oc2cc(O)cc(O)c12 [cmpd 4]
- Cell death: −
